{
  "source": "paper PMC7548837",
  "molecular_target": "T1, His-Strep-DrXth (AP endonuclease DrXth, DR_0354 protein, from Deinococcus radiodurans) (Deinococcus radiodurans) (UniProt Q9RXF9)",
  "T1 sequence": "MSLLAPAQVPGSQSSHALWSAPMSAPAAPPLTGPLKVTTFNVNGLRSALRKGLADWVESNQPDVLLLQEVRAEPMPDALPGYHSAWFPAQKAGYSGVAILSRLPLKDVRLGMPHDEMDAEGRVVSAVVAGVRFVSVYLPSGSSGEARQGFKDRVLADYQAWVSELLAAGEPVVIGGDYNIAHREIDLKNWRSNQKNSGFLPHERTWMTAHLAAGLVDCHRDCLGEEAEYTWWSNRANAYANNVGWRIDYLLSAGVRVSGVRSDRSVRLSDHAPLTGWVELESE",
  "assay": "pull-down; His-Strep-DrXth (200 ul, 0.5 mM) held on streptavidin beads, 4°C 3 h; beads incubated with 400 ul PolX (0.5 mM) and the same amount of BSA as control, 4°C 3 h; wash buffer 20 mM Tris pH 7.5, 100 mM NaCl, 0.05% Tween 20; beads boiled, 12% SDS-PAGE; both purified",
  "note": "Results are given in words; binding and its absence hold for the method and conditions named. Binding calls can cover weak binding; strength is not graded here. Where a sequence is shown, tags or fusion partners need not be part of it.",
  "data": [
    {"substance": "DrPolX (PolX of Deinococcus radiodurans) (enzyme)", "values": [
      {"measurement": "binding", "result": "binds"}
    ]}
  ]
}
